# Values of other authors, collected in patent US6852845B1, “Method of identifying toxic agents using NSAID-induced differential gene expression in liver” (Curagen Corporation, priority 1999, dated 2005).
# Tested on: liver
# Conditions: risk class assigned to each NSAID (low, very low, overdose risk)
compound,measurement,value
COc1ccc2cc([C@H](C)C(=O)O)ccc2c1 [Naproxen],Hepatotoxicity Risk of NSAIDs: Risk,Very Low Risk
